# Data: US20160053277A1, “Compositions Having Dicamba Decarboxylase Activity and Methods of Use” (PIONEER HI-BRED INTERNATIONAL, INC., priority 2013, published 2016)
# Some of these results come from one statement about several compounds together.
# Experiment: Saturation mutagenesis of SEQ ID NO:109: dicamba decarboxylation activity of point mutants (carbon dioxide released)
# Conditions: point mutation in SEQ ID NO:109
row,Molecule,dicamba decarboxylation activity compared to SEQ ID NO:109
1,"N61G: point mutant of SEQ ID NO: 109 (protein, Dicamba decarboxylase variant clone: DC.4.032) MAQGKVALEEHFAIPETLQDSAGFVPGDYWKELQHRLLDIQDTRLKLMDAHGIETMILSLGAPAVQAIPDRRKAIEIARRANDVLAEECAKRPDRFLAFAALPLQDPDAATEELQRCVNDLGFVGALVNGFSQEGDGQTPLYYDLPQYRPFWGEVEKLDVPFYLHPRNPLPQDSRIYDGHPWLLGPTWAFAQETAVHALRLMASGLFDEHPRLNIILGHMGEGLPYMMWRIDHRVAWVKLPPRYPAKRRFMDYFNENFHITTSGNFRTQTLIDAILEIGADRILFSTDWPFENIDHASDWFNATSIAEADRVKIGRTNARRLFKLDGA",more than 2.0 fold
2,"N61S: point mutant of SEQ ID NO: 109 (protein, Dicamba decarboxylase variant clone: DC.4.032) MAQGKVALEEHFAIPETLQDSAGFVPGDYWKELQHRLLDIQDTRLKLMDAHGIETMILSLSAPAVQAIPDRRKAIEIARRANDVLAEECAKRPDRFLAFAALPLQDPDAATEELQRCVNDLGFVGALVNGFSQEGDGQTPLYYDLPQYRPFWGEVEKLDVPFYLHPRNPLPQDSRIYDGHPWLLGPTWAFAQETAVHALRLMASGLFDEHPRLNIILGHMGEGLPYMMWRIDHRVAWVKLPPRYPAKRRFMDYFNENFHITTSGNFRTQTLIDAILEIGADRILFSTDWPFENIDHASDWFNATSIAEADRVKIGRTNARRLFKLDGA",more than 2.0 fold
3,"A64G: point mutant of SEQ ID NO: 109 (protein, Dicamba decarboxylase variant clone: DC.4.032) MAQGKVALEEHFAIPETLQDSAGFVPGDYWKELQHRLLDIQDTRLKLMDAHGIETMILSLNAPGVQAIPDRRKAIEIARRANDVLAEECAKRPDRFLAFAALPLQDPDAATEELQRCVNDLGFVGALVNGFSQEGDGQTPLYYDLPQYRPFWGEVEKLDVPFYLHPRNPLPQDSRIYDGHPWLLGPTWAFAQETAVHALRLMASGLFDEHPRLNIILGHMGEGLPYMMWRIDHRVAWVKLPPRYPAKRRFMDYFNENFHITTSGNFRTQTLIDAILEIGADRILFSTDWPFENIDHASDWFNATSIAEADRVKIGRTNARRLFKLDGA",more than 2.0 fold
4,"A64S: point mutant of SEQ ID NO: 109 (protein, Dicamba decarboxylase variant clone: DC.4.032) MAQGKVALEEHFAIPETLQDSAGFVPGDYWKELQHRLLDIQDTRLKLMDAHGIETMILSLNAPSVQAIPDRRKAIEIARRANDVLAEECAKRPDRFLAFAALPLQDPDAATEELQRCVNDLGFVGALVNGFSQEGDGQTPLYYDLPQYRPFWGEVEKLDVPFYLHPRNPLPQDSRIYDGHPWLLGPTWAFAQETAVHALRLMASGLFDEHPRLNIILGHMGEGLPYMMWRIDHRVAWVKLPPRYPAKRRFMDYFNENFHITTSGNFRTQTLIDAILEIGADRILFSTDWPFENIDHASDWFNATSIAEADRVKIGRTNARRLFKLDGA",more than 2.0 fold
5,"L240A: point mutant of SEQ ID NO: 109 (protein, Dicamba decarboxylase variant clone: DC.4.032) MAQGKVALEEHFAIPETLQDSAGFVPGDYWKELQHRLLDIQDTRLKLMDAHGIETMILSLNAPAVQAIPDRRKAIEIARRANDVLAEECAKRPDRFLAFAALPLQDPDAATEELQRCVNDLGFVGALVNGFSQEGDGQTPLYYDLPQYRPFWGEVEKLDVPFYLHPRNPLPQDSRIYDGHPWLLGPTWAFAQETAVHALRLMASGLFDEHPRLNIILGHMGEGLPYMMWRIDHRVAWVKAPPRYPAKRRFMDYFNENFHITTSGNFRTQTLIDAILEIGADRILFSTDWPFENIDHASDWFNATSIAEADRVKIGRTNARRLFKLDGA",more than 2.0 fold
6,"L240D: point mutant of SEQ ID NO: 109 (protein, Dicamba decarboxylase variant clone: DC.4.032) MAQGKVALEEHFAIPETLQDSAGFVPGDYWKELQHRLLDIQDTRLKLMDAHGIETMILSLNAPAVQAIPDRRKAIEIARRANDVLAEECAKRPDRFLAFAALPLQDPDAATEELQRCVNDLGFVGALVNGFSQEGDGQTPLYYDLPQYRPFWGEVEKLDVPFYLHPRNPLPQDSRIYDGHPWLLGPTWAFAQETAVHALRLMASGLFDEHPRLNIILGHMGEGLPYMMWRIDHRVAWVKDPPRYPAKRRFMDYFNENFHITTSGNFRTQTLIDAILEIGADRILFSTDWPFENIDHASDWFNATSIAEADRVKIGRTNARRLFKLDGA",more than 2.0 fold
7,"L240E: point mutant of SEQ ID NO: 109 (protein, Dicamba decarboxylase variant clone: DC.4.032) MAQGKVALEEHFAIPETLQDSAGFVPGDYWKELQHRLLDIQDTRLKLMDAHGIETMILSLNAPAVQAIPDRRKAIEIARRANDVLAEECAKRPDRFLAFAALPLQDPDAATEELQRCVNDLGFVGALVNGFSQEGDGQTPLYYDLPQYRPFWGEVEKLDVPFYLHPRNPLPQDSRIYDGHPWLLGPTWAFAQETAVHALRLMASGLFDEHPRLNIILGHMGEGLPYMMWRIDHRVAWVKEPPRYPAKRRFMDYFNENFHITTSGNFRTQTLIDAILEIGADRILFSTDWPFENIDHASDWFNATSIAEADRVKIGRTNARRLFKLDGA",more than 2.0 fold
8,"S298A: point mutant of SEQ ID NO: 109 (protein, Dicamba decarboxylase variant clone: DC.4.032) MAQGKVALEEHFAIPETLQDSAGFVPGDYWKELQHRLLDIQDTRLKLMDAHGIETMILSLNAPAVQAIPDRRKAIEIARRANDVLAEECAKRPDRFLAFAALPLQDPDAATEELQRCVNDLGFVGALVNGFSQEGDGQTPLYYDLPQYRPFWGEVEKLDVPFYLHPRNPLPQDSRIYDGHPWLLGPTWAFAQETAVHALRLMASGLFDEHPRLNIILGHMGEGLPYMMWRIDHRVAWVKLPPRYPAKRRFMDYFNENFHITTSGNFRTQTLIDAILEIGADRILFSTDWPFENIDHAADWFNATSIAEADRVKIGRTNARRLFKLDGA",more than 2.0 fold
9,"G27A: point mutant of SEQ ID NO: 109 (protein, Dicamba decarboxylase variant clone: DC.4.032) MAQGKVALEEHFAIPETLQDSAGFVPADYWKELQHRLLDIQDTRLKLMDAHGIETMILSLNAPAVQAIPDRRKAIEIARRANDVLAEECAKRPDRFLAFAALPLQDPDAATEELQRCVNDLGFVGALVNGFSQEGDGQTPLYYDLPQYRPFWGEVEKLDVPFYLHPRNPLPQDSRIYDGHPWLLGPTWAFAQETAVHALRLMASGLFDEHPRLNIILGHMGEGLPYMMWRIDHRVAWVKLPPRYPAKRRFMDYFNENFHITTSGNFRTQTLIDAILEIGADRILFSTDWPFENIDHASDWFNATSIAEADRVKIGRTNARRLFKLDGA",more than 2.0 fold
10,"S298T: point mutant of SEQ ID NO: 109 (protein, Dicamba decarboxylase variant clone: DC.4.032) MAQGKVALEEHFAIPETLQDSAGFVPGDYWKELQHRLLDIQDTRLKLMDAHGIETMILSLNAPAVQAIPDRRKAIEIARRANDVLAEECAKRPDRFLAFAALPLQDPDAATEELQRCVNDLGFVGALVNGFSQEGDGQTPLYYDLPQYRPFWGEVEKLDVPFYLHPRNPLPQDSRIYDGHPWLLGPTWAFAQETAVHALRLMASGLFDEHPRLNIILGHMGEGLPYMMWRIDHRVAWVKLPPRYPAKRRFMDYFNENFHITTSGNFRTQTLIDAILEIGADRILFSTDWPFENIDHATDWFNATSIAEADRVKIGRTNARRLFKLDGA",more than 2.0 fold
11,"A303E: point mutant of SEQ ID NO: 109 (protein, Dicamba decarboxylase variant clone: DC.4.032) MAQGKVALEEHFAIPETLQDSAGFVPGDYWKELQHRLLDIQDTRLKLMDAHGIETMILSLNAPAVQAIPDRRKAIEIARRANDVLAEECAKRPDRFLAFAALPLQDPDAATEELQRCVNDLGFVGALVNGFSQEGDGQTPLYYDLPQYRPFWGEVEKLDVPFYLHPRNPLPQDSRIYDGHPWLLGPTWAFAQETAVHALRLMASGLFDEHPRLNIILGHMGEGLPYMMWRIDHRVAWVKLPPRYPAKRRFMDYFNENFHITTSGNFRTQTLIDAILEIGADRILFSTDWPFENIDHASDWFNETSIAEADRVKIGRTNARRLFKLDGA",more than 2.0 fold
12,"G327Q: point mutant of SEQ ID NO: 109 (protein, Dicamba decarboxylase variant clone: DC.4.032) MAQGKVALEEHFAIPETLQDSAGFVPGDYWKELQHRLLDIQDTRLKLMDAHGIETMILSLNAPAVQAIPDRRKAIEIARRANDVLAEECAKRPDRFLAFAALPLQDPDAATEELQRCVNDLGFVGALVNGFSQEGDGQTPLYYDLPQYRPFWGEVEKLDVPFYLHPRNPLPQDSRIYDGHPWLLGPTWAFAQETAVHALRLMASGLFDEHPRLNIILGHMGEGLPYMMWRIDHRVAWVKLPPRYPAKRRFMDYFNENFHITTSGNFRTQTLIDAILEIGADRILFSTDWPFENIDHASDWFNATSIAEADRVKIGRTNARRLFKLDQA",more than 2.0 fold
13,"A328D: point mutant of SEQ ID NO: 109 (protein, Dicamba decarboxylase variant clone: DC.4.032) MAQGKVALEEHFAIPETLQDSAGFVPGDYWKELQHRLLDIQDTRLKLMDAHGIETMILSLNAPAVQAIPDRRKAIEIARRANDVLAEECAKRPDRFLAFAALPLQDPDAATEELQRCVNDLGFVGALVNGFSQEGDGQTPLYYDLPQYRPFWGEVEKLDVPFYLHPRNPLPQDSRIYDGHPWLLGPTWAFAQETAVHALRLMASGLFDEHPRLNIILGHMGEGLPYMMWRIDHRVAWVKLPPRYPAKRRFMDYFNENFHITTSGNFRTQTLIDAILEIGADRILFSTDWPFENIDHASDWFNATSIAEADRVKIGRTNARRLFKLDGD",more than 2.0 fold
